Test results: patent US20240115667A1 (priority 2020, published 2024)
Converted amounts (≈) assume the structure as drawn. Like-named read-outs stand apart in the source and are kept apart here.

How the values were obtained:
SARS-CoV-2 [1] = assay: microbe, parasite or virus in culture; details: Vero E6, 72 h, MOI 0.3
SARS-CoV-2 [2] = details: cited from earlier work
SARS-CoV-2 [3] = details: diphenhydramine alone

## CN(C)CCOC(c1ccccc1)c1ccccc1 [Diphenhydramine]
SARS-CoV-2 [1]; Severe acute respiratory syndrome coronavirus 2, Vero C1008, 72 h, read-out: Diphenhydramine EC50, with 0 μg/mL lactoferrin
  EC50: 155 µg/mL
SARS-CoV-2 [1]; Severe acute respiratory syndrome coronavirus 2, Vero C1008, in Homo sapiens, 72 h, read-out: Diphenhydramine EC50, with 50 μg/mL human unsaturated lactoferrin
  EC50: 40.8 µg/mL (≈ 160 µM)
SARS-CoV-2 [1]; Severe acute respiratory syndrome coronavirus 2, Vero C1008, in Homo sapiens, 72 h, read-out: Diphenhydramine EC50, with 100 μg/mL human unsaturated lactoferrin
  EC50: 43.3 µg/mL (≈ 169 µM)
SARS-CoV-2 [1]; Severe acute respiratory syndrome coronavirus 2, Vero C1008, in Homo sapiens, 72 h, read-out: Diphenhydramine EC50, with 200 μg/mL human unsaturated lactoferrin
  EC50: 41 µg/mL (≈ 161 µM)
SARS-CoV-2 [1]; Severe acute respiratory syndrome coronavirus 2, Vero C1008, in Homo sapiens, 72 h, read-out: Diphenhydramine EC50, with 400 μg/mL human unsaturated lactoferrin
  EC50: 40.4 µg/mL (≈ 158 µM)
SARS-CoV-2 [1]; Severe acute respiratory syndrome coronavirus 2, Vero C1008, in Homo sapiens, 72 h, read-out: Diphenhydramine EC50, with 800 μg/mL human unsaturated lactoferrin
  EC50: 42.8 µg/mL (≈ 167 µM)
SARS-CoV-2 [2]
  EC50 for SARS-CoV-2 by plaque reduction assay: 17.4 µg/mL
SARS-CoV-2 [2]; read-out: EC50 for SARS-CoV-2 by plaque reduction assay
  EC50: 59.6 µM
SARS-CoV-2 [3]
  Cytotoxicity EC50 relative to plaque reduction assay EC50: about 7 times higher
